Results: patent publication US20130253179A1, “Functionalization Processes and Reactants Used in Such Processes Using an Isatoic Anhydride or a Derivative Thereof, Biological Molecules Thus Treated and Kits” (priority 2010, published 2013)

Columns and labels:
[1] = system: HIV RNA Transcript/calf thymus gDNA; test: Selective extraction of RNA from an RNA/DNA mixture (Qubit assay); conditions: compound 1.5 mM
[2] = system: MAQC RNA/calf thymus gDNA; test: as above; set-up: species or system human; conditions: compound 1.5 mM
[3] = system: ORN with 27 bases in mixture with an ODN with 27 bases; test: Selective functionalisation, capture, cleaving and elution of an ORN from an ORN/ODN mixture (HPLC 260 nm)
Experimental: We have a 27-mer ODN (Eurogentec ref. 21438-DNA batch #2177673, Sequence: 5′-AAC-CGC-AGT-GAC-ACC-CTC-ATC-ATT-ACA-3′) in 650 μM solution in water, and a 27-mer ORN (Eurogentec ref. 21437-RNA batch #2177672, Sequence: 5′-AAC-CGC-AGU-GAC-ACC-CUC-AUC-AUU-ACA-3′) in 952 μM solution in water. 15.4 μL of ODN and 17.5 μL of ORN are mixed and topped up with 67.1 μL of ultrapure water.
80 μL of the mixture (8 nmoles) are evaporated until dry and taken up in: 10 μL of water, 5 μL of isatoic anhydride Biot PEG4(SS)IA Me (24); […]), in 480 mM DMF solution, and 5 μL of Triethyl ammonium acetate buffer in 1 M solution in water. The medium is placed in the oven at 65° C. for one hour.
The medium is then subjected to a triple precipitation with lithium perchlorate LiClO4 and with acetone, in order to free it from the residual BiotPEG4 (SS) IA Me: 18 μL of LiClO4 in 3M solution in water and 262 μL of water are added to the medium. After vortex stirring, 900 μL of acetone are added, then the medium is agitated once again and centrifuged (5 minutes at 13,000 rpm at ambient temperature). The supernatant is then removed carefully and the same method is repeated twice more with 18 μL of LiClO4 and 282 μL of water. Finally, the medium is washed with 900 μL of acetone before stirring and centrifuging. The greater part of the supernatant is removed carefully before drying in the rotary evaporator.
The functionalisation and precipitation steps described above are repeated, starting from the dry residue taken up in 10 μL of water.
The ORN/ODN mixture is then taken up in 33 μL of water and 5 μL of the solution are then injected into HPLC (Injection 2, HPLC conditions No. 4, FIG. 15).
The following are successively introduced into a 250 μL tube: • 250 μg (i.e. 50 μL of solution) of Merck MagPrep-25 streptavidin-coated magnetic particles (Merck, Darmstadt, Germany), washed twice in advance with 200 μL of PBS buffer (0.01 M PO4^−, 0.0027 M KCl, 0.137 M NaCl, pH=7.4 at 25° C., Sigma-Aldrich ref., Saint Louis, USA). • 10 μL of PBS and 4.0 μL of precipitated ORN/ODN mixture which has reacted with the compound Biot PEG4 (SS) IA Me (24). • The medium is left under gentle stirring at ambient temperature for 10 minutes.
After magnetisation of the particles, the supernatant is removed carefully and a fraction is injected into HPLC (Injection 3, HPLC conditions No. 4, FIG. 15). The particles are then washed twice with 200 μL of PBS. 20 μL of dithiothreitol (DTT) in 100 mM solution in PBS are then added to the medium, which is left under gentle stirring at 40° C. for one hour.
After magnetisation, the supernatant is injected into HPLC (Injection 4, HPLC conditions No. 4, FIG. 15). […]

[4] = system: Easy MAG eluate from total blood; test: Selective extraction of RNA from an RNA/DNA mixture (Qubit assay); conditions: compound 1.5 mM
[5] = system: in vitro RNA transcripts (IVT); test: Functionalisation of in vitro RNA transcripts, Cy3 and RNA assay, DoL (Degree of Labelling); format: biochemical, human
Experimental: The in vitro transcripts are generated in the same way as described in example 8. In this example, we have used four concentrations of functionalisation molecule Cy3 IA Me (13) in order to determine the most appropriate concentration for detection of the most sensitive functionalised IVTs.
6 μg of in vitro transcripts are taken up in a total volume of 20 μL of a 10 mM solution of Zn(OAc)2 pH 6.5. The solution is incubated for 15 min at 70° C. in order to partially fragment the RNA until a majority of fragments are obtained which are of a size between 25 and 200 bases. After this incubation, the solution is immediately put into ice.
11 μL of the transcript solution is mixed with 4 μL of a 500 mM solution of NaHCO3 pH 8-8.5, and with 5 μL of a 120, 240, 360 or 480 mM solution of Cy3 IA Me (13) in DMSO, to obtain 30, 60, 90 or 120 mM solutions of functionalisation reagent, respectively. These solutions are incubated at 65° C. for one hour.
The excess of functionalisation reagent as well as that of the different salts are eliminated by isopropanol precipitation then by acetone precipitation. To do this, 6 μL of 3M sodium acetate (i.e. 30% by volume) and 14 μL of isopropanol (i.e. 70% by volume) are added to the functionalisation solution. Vortex stirring is performed and centrifuging is performed for 30 mins at 14,000 rpm (20,800 g) at 4° C. The supernatant is eliminated and then the pellet is rinsed with 50 μL of 70% ethanol. Centrifuging is carried out again for 15 mins at 14,000 rpm (20,800 g) at 4° C., and the supernatant is eliminated.
280 μL of water, 18 μL of 3M LiClO4 and 900 μL of acetone are added to the pellet. Vortex stirring is performed, centrifuging is performed and the supernatant is eliminated. Next, 280 μL of water, 18 μL of 3M LiClO4 and 900 μL of acetone are added to the pellet. Vortex stirring is performed, centrifuging is performed and the supernatant is eliminated. The pellet is rinsed with 50 μL of 70% ethanol and then centrifuging is carried out for 15 mins at 14,000 rpm (20,800 g) at 4° C. The supernatant is eliminated, and the pellet is dried under vacuum with the rotary evaporator before the pellet is taken up in 20 μL of water (i.e. [in vitro transcripts]theoretical=[…]).
In order to determine the quantity of functionalised in vitro transcripts recovered after these different treatments, 1.2 μl of each end solution are assayed by UV spectrophotometry at 260 nm (Nanodrop 100, Thermo Scientific Waltham, USA). An assay is also carried out at 550 nm in order to learn the Cy3 functionalisation rate of the in vitro transcripts (% of Cy3 molecules per 100 nucleosides). This value is also known under the name DoL (Degree of Labelling) and is calculated with the following equation: DoL (in %)=100×(340×[Cy3])/(1000×[RNA]). The details of this equation are described in the protocol for the Cy3-ULS kit ref. EA-023 marketed by Kreatech (Amsterdam, The Netherlands). Table 4 below describes the DoL values following the functionalisation of IVT with different concentrations of molecule Cy3 IA Me (13).

[6] = 120 mM compound in the solution

SMILES | Selectivity S [1] | DNA/RNA ratio (final) ([1]; initial DNA/RNA 80/20) | Selectivity S [2] | DNA/RNA ratio (final) ([2]; initial DNA/RNA 89/11) | nucleoside adducts and nucleotide anthranilate SH, level in the total mixture ([3]; after complete hydrolysis by Nuclease P1 and alkaline phosphatase) | specific capture yield ([3]; injection 3, streptavidin-coated magnetic particles) | ORN freed from the support, yield relative to the quantity involved at the start ([3]; injection 4, DTT 100 mM, 40° C. 1 h) | yield from the functionalisation/capture/elution process ([3]; optimised conditions) | Selectivity S [4] | DNA/RNA ratio (final) ([4]; initial DNA/RNA 88/12) | Nanodrop IVT assay at 260 nm ([5]; 30 mM compound in the solution) | Cy3 assay at 550 nm ([5]; 30 mM compound in the solution, 65° C. 1 h, NaHCO3 pH 8-8.5) | Cy3 assay at 550 nm ([5]; 60 mM compound in the solution) | Nanodrop IVT assay at 260 nm ([5]; 60 mM compound in the solution) | Cy3 assay at 550 nm ([5]; 90 mM compound in the solution) | Nanodrop IVT assay at 260 nm ([5]; 90 mM compound in the solution) | Cy3 assay at 550 nm [5, 6] | Nanodrop IVT assay at 260 nm [5, 6]
Cn1c(=O)oc(=O)c2cc(NC(=O)CCSSCCNC(=O)CCOCCOCCOCCOCCNC(=O)CCCCC3SCC4NC(=O)NC43)ccc21 (stereo not drawn) [5Biot PEG4 SS IA Me 24] | 26 | 9/91 | 50 | 14/86 | 5% | 37% | 18% | around 50% | 54 | 12/88 |  |  |  |  |  |  |  | 
CCN1/C(=C\C=C\C2=[N+](CCCCCC(=O)Nc3ccc4c(c3)c(=O)oc(=O)n4C)c3ccc(S(=O)(=O)[O-])cc3C2(C)C)C(C)(C)c2cc(S(=O)(=O)[O-])ccc21.[K+] [Cy3 IA Me 13, 1-methyl 5-Cy3-isatoic anhydride] |  |  |  |  |  |  |  |  |  |  | 271 ng/µL | 6.7 pmol/µL | 13.1 pmol/µL | 255 ng/µL | 12.3 pmol/µL | 207 ng/µL | 15.2 pmol/µL | 192 ng/µL
